Our source for the binding values is PMC7951975.

No constants are given. Whether binding was seen depends on the method and setting. Binding can be weak; no strength is given. Tags and fused reporters may be left off the sequences shown.

This assay has as its target T1, GraS (native), fused to the T18 fragment of adenylate cyclase (Staphylococcus aureus) (UniProt Q2G0D9).
T1 sequence: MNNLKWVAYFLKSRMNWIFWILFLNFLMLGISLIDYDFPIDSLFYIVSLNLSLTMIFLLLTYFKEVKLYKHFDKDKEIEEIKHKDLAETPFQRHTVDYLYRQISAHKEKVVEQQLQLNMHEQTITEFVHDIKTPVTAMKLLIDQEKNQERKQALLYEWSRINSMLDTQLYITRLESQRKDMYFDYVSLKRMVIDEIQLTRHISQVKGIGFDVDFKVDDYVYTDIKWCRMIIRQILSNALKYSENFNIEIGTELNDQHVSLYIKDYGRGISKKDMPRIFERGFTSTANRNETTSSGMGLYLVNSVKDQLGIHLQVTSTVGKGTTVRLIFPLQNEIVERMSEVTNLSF
As to the kind of experiment: two-hybrid; bacterial two-hybrid (BACTH) in E. coli DHT1; VraG variants with T25 (pKT25), GraS variants with T18 (pUT18); grown at 30°C; β-galactosidase activity with ONPG, absorbance at 420 nm after 15 min; also streaked on LB plates with IPTG and X-gal; empty plasmids as negative control.
For “VraG K388A, fused to the T25 fragment of adenylate cyclase (from UniProt Q9KWJ4)”, the binding entry is given as “binds”.

In the case of “VraG (native), fused to the T25 fragment of adenylate cyclase (from UniProt Q9KWJ4)”, the binding result was “binds”.

In the case of “ΔEL VraG, fused to the T25 fragment of adenylate cyclase (from UniProt Q9KWJ4)”, the binding result was “no binding”.

As for “VraG K380A, fused to the T25 fragment of adenylate cyclase (from UniProt Q9KWJ4)”, the binding entry was “no binding”.
